# Laboratory results reported in patent US20220177870A1.
# No constants are given. Whether binding was seen depends on the method and setting. Where a sequence is shown, tags or fusion partners need not be part of it.
# B1: VHO3-Fc (Fc fusion, not shown: a dimerising Fc or GST)
# chain: EVQLLESGGGLVQPGGSLRLSCAASGFTFSTYWMSWVRQAPGKGLEWVSVISGDGGSTYYADSVKGRFTISRDNSKNTLYLQMNSLRAEDTAVYYCAKWKGAGRGPGALGGLDVWGQGTLVTVSS
# B2: VHO4-Fc (Fc fusion, not shown: a dimerising Fc or GST)
# chain: EVQLLESGGGLVQPGGSLRLSCAASGFTFSSYGMSWVRQAPGKGLEWVSAIWSDGSSTYYADSVKGRFTISRDNSKNTLYLQMNSLRAEDTAVYYCARRTWGHQFDYWGQGTLVTVSS
# B3: VHO5-Fc (Fc fusion, not shown: a dimerising Fc or GST)
# chain: EVQLLESGGGLVQPGGSLRLSCAASGFTFSSYWMHWVRQAPGKGLEWVSVINYSGSSTYYADSVKGRFTISRDNSKNTLYLQMNSLRAEDTAVYYCAMGTPGELPLDYWGQGTLVTVSS
# Biological target: beta-2-microglobulin (B2M)
# Experiment: BLI (GatorBio), biotinylated B2M on streptavidin probe, VHO-Fc as analyte, pH 7 and pH 6
row,binding,Binder
1,no binding,B1
2,no binding,B2
3,no binding,B3
